These are yes or no findings as the source states them, for the method shown. For part of these data: In cells and extracts the contact can be indirect. Some binding calls cover weakened binding; strength is not graded here. For part of these data: Tags and fused reporters may be left off the sequences shown.

Chains of the proteins cited; added tags and fusions are not shown.
UniProt Q9HFE8: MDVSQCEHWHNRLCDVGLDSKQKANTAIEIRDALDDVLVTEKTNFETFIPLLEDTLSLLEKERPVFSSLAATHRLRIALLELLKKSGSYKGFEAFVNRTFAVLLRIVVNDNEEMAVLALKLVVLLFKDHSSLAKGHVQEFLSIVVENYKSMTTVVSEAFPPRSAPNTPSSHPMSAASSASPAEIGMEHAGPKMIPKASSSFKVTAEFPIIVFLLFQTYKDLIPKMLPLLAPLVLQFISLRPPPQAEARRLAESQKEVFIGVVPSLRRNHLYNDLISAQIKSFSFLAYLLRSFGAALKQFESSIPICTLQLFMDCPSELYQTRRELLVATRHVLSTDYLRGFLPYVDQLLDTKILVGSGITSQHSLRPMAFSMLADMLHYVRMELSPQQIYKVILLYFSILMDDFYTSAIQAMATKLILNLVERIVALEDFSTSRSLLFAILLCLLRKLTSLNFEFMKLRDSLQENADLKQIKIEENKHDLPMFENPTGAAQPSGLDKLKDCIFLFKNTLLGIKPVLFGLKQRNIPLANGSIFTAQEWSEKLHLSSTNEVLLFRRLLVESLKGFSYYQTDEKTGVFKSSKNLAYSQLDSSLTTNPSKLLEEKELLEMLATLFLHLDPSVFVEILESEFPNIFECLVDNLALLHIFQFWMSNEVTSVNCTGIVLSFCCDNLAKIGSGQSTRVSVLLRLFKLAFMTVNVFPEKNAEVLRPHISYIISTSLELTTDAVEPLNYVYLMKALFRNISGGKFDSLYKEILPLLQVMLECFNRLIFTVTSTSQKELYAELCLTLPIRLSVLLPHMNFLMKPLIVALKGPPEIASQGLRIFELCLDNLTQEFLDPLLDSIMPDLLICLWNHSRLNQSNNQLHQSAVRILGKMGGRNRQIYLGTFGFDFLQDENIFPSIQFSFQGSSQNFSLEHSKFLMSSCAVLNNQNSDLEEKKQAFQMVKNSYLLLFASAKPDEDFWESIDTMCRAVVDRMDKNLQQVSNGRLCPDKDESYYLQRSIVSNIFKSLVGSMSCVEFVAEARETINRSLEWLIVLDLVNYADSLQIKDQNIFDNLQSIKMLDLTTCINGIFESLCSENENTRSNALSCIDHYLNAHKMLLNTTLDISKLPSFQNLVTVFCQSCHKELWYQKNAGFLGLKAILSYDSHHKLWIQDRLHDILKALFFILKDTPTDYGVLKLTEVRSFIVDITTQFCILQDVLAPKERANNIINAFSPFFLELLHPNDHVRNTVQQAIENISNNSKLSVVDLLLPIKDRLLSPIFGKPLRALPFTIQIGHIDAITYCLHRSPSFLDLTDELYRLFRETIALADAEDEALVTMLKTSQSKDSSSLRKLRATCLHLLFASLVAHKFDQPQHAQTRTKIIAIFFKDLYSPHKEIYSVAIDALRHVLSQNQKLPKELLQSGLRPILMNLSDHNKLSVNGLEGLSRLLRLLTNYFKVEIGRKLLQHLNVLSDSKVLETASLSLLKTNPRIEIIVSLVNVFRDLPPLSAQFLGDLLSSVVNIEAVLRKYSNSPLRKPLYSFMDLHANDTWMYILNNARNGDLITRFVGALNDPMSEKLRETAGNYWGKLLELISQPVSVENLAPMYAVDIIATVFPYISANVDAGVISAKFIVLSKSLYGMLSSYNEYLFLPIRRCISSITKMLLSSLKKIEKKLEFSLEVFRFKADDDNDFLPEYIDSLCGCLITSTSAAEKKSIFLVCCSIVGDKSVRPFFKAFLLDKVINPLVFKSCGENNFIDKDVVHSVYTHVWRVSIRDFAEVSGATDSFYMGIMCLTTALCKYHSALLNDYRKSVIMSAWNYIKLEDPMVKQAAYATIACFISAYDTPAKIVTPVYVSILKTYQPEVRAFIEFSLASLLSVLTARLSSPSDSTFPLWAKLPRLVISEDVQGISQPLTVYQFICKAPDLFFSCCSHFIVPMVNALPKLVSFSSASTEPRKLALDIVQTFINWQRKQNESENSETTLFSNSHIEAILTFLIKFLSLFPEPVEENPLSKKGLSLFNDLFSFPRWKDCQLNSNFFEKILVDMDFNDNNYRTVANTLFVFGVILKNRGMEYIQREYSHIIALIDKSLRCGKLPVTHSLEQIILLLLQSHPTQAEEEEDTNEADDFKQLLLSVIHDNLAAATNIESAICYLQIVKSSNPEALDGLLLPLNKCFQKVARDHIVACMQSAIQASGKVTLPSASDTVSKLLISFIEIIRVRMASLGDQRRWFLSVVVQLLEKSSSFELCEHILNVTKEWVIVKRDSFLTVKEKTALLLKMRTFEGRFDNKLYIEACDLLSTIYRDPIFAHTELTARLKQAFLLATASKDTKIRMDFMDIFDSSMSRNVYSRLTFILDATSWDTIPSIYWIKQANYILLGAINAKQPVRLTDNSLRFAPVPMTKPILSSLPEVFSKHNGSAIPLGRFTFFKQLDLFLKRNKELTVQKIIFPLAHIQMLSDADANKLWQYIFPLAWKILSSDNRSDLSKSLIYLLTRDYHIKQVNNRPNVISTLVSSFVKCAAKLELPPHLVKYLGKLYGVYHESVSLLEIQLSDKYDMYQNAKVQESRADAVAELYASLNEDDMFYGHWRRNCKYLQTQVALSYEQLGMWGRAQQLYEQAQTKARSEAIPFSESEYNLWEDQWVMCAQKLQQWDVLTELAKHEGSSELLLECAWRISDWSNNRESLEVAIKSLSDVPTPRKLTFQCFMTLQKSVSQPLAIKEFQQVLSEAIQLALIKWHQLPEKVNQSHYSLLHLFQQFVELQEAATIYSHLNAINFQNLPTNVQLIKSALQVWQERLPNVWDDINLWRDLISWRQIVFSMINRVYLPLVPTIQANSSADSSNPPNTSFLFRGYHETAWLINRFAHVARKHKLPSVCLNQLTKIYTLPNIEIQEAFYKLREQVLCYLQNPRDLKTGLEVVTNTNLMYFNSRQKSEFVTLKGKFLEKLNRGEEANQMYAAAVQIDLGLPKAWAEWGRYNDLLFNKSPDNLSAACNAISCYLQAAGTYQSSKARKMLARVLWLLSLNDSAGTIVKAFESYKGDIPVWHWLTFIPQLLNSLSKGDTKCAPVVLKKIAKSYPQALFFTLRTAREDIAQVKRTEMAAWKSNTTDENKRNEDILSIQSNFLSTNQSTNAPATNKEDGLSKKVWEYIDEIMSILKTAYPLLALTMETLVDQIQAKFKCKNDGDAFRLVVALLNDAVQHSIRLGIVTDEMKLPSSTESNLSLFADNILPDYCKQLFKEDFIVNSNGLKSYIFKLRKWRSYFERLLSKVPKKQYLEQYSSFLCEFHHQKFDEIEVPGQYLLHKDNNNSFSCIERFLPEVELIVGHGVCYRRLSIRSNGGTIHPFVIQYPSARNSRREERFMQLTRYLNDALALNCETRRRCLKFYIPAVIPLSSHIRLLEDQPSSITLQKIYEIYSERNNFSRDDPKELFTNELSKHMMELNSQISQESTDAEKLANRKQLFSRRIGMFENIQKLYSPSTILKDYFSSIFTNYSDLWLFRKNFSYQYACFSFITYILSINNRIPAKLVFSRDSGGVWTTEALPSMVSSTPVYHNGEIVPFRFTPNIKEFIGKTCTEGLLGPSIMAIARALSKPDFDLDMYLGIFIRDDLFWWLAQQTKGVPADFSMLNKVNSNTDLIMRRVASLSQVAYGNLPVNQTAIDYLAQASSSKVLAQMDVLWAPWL

Experiment [1] addresses T1, GST fused to S. cerevisiae (Sc) Spt20 HIT region (residues 468-537) (S. cerevisiae) (UniProt P50875).
T1 sequence: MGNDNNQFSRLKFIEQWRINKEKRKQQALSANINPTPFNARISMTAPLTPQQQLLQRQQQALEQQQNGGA
As to the kind of experiment: pull-down.

In experiment [2] the target is T2, GST fused to S. pombe (Sp) Spt20 HIT region (residues 282-324) (S. pombe) (UniProt O14174).
T2 sequence: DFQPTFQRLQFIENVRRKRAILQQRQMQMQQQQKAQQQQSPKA
Briefly: pull-down.

Experiment [3] concerns the target T3, S. cerevisiae Spt20 (S. cerevisiae) (UniProt P50875).
T3 sequence: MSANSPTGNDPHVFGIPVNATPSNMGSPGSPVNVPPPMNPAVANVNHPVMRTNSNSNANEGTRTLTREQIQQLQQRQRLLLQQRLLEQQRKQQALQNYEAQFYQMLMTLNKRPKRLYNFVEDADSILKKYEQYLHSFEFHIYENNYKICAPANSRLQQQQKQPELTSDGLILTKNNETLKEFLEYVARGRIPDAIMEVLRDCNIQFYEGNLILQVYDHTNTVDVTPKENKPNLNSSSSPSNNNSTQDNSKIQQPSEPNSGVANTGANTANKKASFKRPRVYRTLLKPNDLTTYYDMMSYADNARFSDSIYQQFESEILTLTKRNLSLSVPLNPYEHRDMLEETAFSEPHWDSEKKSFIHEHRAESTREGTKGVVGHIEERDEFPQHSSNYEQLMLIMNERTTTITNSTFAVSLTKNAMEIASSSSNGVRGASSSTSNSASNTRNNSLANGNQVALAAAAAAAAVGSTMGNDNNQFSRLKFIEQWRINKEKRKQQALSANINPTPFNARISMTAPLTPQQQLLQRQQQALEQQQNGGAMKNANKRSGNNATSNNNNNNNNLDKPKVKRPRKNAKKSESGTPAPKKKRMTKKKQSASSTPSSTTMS
As to the kind of experiment: tandem affinity purification.

In the case of FLAG-Tra1 (from UniProt Q9HFE8 1-3661), the binding result in experiment [1] and in experiment [2] was “binds” in each case.

For “S. cerevisiae Tra1 (from UniProt P38811 1-3744)”, the binding entry in experiment [3] is “binds”.

These data come from publication doi:10.1101/524959.
